Results are given in words; binding and its absence hold for the method and conditions named. For some of these results: In cells and extracts the contact can be indirect. Some binding calls cover weakened binding; strength is not graded here. For some of these results: Tags and fused reporters may be left off the sequences shown.

Test [1] deals with T1, GST‐β‐catenin fusion protein (human), P35222.
T1 chain: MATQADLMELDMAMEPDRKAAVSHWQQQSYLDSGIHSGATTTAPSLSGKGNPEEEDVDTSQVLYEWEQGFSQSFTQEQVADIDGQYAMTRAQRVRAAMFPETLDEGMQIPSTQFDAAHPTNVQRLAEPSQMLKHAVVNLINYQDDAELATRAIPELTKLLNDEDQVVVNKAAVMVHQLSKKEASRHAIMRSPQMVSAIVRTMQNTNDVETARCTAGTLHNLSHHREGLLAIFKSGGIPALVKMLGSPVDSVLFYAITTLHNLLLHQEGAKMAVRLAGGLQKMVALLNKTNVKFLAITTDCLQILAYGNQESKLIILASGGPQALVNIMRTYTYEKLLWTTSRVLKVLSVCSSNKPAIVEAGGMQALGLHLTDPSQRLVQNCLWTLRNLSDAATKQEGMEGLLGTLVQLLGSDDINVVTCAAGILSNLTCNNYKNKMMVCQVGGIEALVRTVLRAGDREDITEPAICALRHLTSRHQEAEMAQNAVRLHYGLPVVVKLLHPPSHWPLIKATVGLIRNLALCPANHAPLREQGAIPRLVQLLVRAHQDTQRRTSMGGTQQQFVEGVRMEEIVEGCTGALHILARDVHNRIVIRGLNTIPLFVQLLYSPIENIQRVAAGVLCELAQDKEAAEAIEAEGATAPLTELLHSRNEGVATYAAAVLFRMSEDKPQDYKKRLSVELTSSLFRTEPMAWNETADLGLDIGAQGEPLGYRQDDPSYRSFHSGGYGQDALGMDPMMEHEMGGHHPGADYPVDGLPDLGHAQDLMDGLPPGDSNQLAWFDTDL
Briefly: pull-down; GST or β‐catenin‐GST fusion protein (20 µg) on GSH beads, 2 h at 4 °C; LIMK1/CDK5‐His‐tagged proteins (20 µg) added in IP lysis buffer, overnight at 4 °C; SDS‐PAGE and Western blot; both purified. The following applies: remark: other sources report otherwise. For orientation: In western blotting, separated proteins are transferred to a membrane and probed.

For test [2], the target named is β‐catenin, wild type, in ESCC cells (human) (UniProt P35222). The test is described as follows: co-IP; lysates of transfected ESCC cells, precleared with IgG and protein A/G Sepharose beads; primary antibody overnight at 4 °C, protein A/G Sepharose beads 4 h, washed with IP lysis buffer, Western blot; for β‐catenin and NUP93 with ectopic LIMK1 or CDK5 (wild type or kinase-dead).

For test [3], the target named is β‐catenin‐S191A, overexpressed in ESCC cells (human) (UniProt P35222). The description is as above.
Test [4] deals with LIM domain kinase 1 (LIMK1), wild type, overexpressed in ESCC cells (human), P53667. Described as above. The following applies: remark: other sources report otherwise.

B1: LIMK1‐His‐tagged protein, P53667 1-647 (enzyme)
chain: MRLTLLCCTWREERMGEEGSELPVCASCGQRIYDGQYLQALNADWHADCFRCCDCSASLSHQYYEKDGQLFCKKDYWARYGESCHGCSEQITKGLVMVAGELKYHPECFICLTCGTFIGDGDTYTLVEHSKLYCGHCYYQTVVTPVIEQILPDSPGSHLPHTVTLVSIPASSHGKRGLSVSIDPPHGPPGCGTEHSHTVRVQGVDPGCMSPDVKNSIHVGDRILEINGTPIRNVPLDEIDLLIQETSRLLQLTLEHDPHDTLGHGLGPETSPLSSPAYTPSGEAGSSARQKPVLRSCSIDRSPGAGSLGSPASQRKDLGRSESLRVVCRPHRIFRPSDLIHGEVLGKGCFGQAIKVTHRETGEVMVMKELIRFDEETQRTFLKEVKVMRCLEHPNVLKFIGVLYKDKRLNFITEYIKGGTLRGIIKSMDSQYPWSQRVSFAKDIASGMAYLHSMNIIHRDLNSHNCLVRENKNVVVADFGLARLMVDEKTQPEGLRSLKKPDRKKRYTVVGNPYWMAPEMINGRSYDEKVDVFSFGIVLCEIIGRVNADPDYLPRTMDFGLNVRGFLDRYCPPNCPPSFFPITVRCCDLDPEKRPSFVKLEHWLETLRMHLAGHLPLGPQLEQLDRGFWETYRRGESGLPAHPEVPD
For the molecule B1, the binding entry in test [1] is given as “binds”.

B2: nucleoporin 93 (NUP93) (protein, UniProt Q8N1F7 1-819)
chain: MDTEGFGELLQQAEQLAAETEGISELPHVERNLQEIQQAGERLRSRTLTRTSQETADVKASVLLGSRGLDISHISQRLESLSAATTFEPLEPVKDTDIQGFLKNEKDNALLSAIEESRKRTFGMAEEYHRESMLVEWEQVKQRILHTLLASGEDALDFTQESEPSYISDVGPPGRSSLDNIEMAYARQIYIYNEKIVNGHLQPNLVDLCASVAELDDKSISDMWTMVKQMTDVLLTPATDALKNRSSVEVRMEFVRQALAYLEQSYKNYTLVTVFGNLHQAQLGGVPGTYQLVRSFLNIKLPAPLPGLQDGEVEGHPVWALIYYCMRCGDLLAASQVVNRAQHQLGEFKTWFQEYMNSKDRRLSPATENKLRLHYRRALRNNTDPYKRAVYCIIGRCDVTDNQSEVADKTEDYLWLKLNQVCFDDDGTSSPQDRLTLSQFQKQLLEDYGESHFTVNQQPFLYFQVLFLTAQFEAAVAFLFRMERLRCHAVHVALVLFELKLLLKSSGQSAQLLSHEPGDPPCLRRLNFVRLLMLYTRKFESTDPREALQYFYFLRDEKDSQGENMFLRCVSELVIESREFDMILGKLENDGSRKPGVIDKFTSDTKPIINKVASVAENKGLFEEAAKLYDLAKNADKVLELMNKLLSPVVPQISAPQSNKERLKNMALSIAERYRAQGISANKFVDSTFYLLLDLITFFDEYHSGHIDRAFDIIERLKLVPLNQESVEERVAAFRNFSDEIRHNLSEVLLATMNILFTQFKRLKGTSPSSSSRPQRVIEDRDSQLRSQARTLITFAGMIPYRTSGDTNARLVQMEVLMN
On to B2, for which the binding entry in test [2] and in test [3] was “binds” each time.

B3: β‐catenin, wild type, in ESCC cells, P35222 1-781 (protein)
chain: MATQADLMELDMAMEPDRKAAVSHWQQQSYLDSGIHSGATTTAPSLSGKGNPEEEDVDTSQVLYEWEQGFSQSFTQEQVADIDGQYAMTRAQRVRAAMFPETLDEGMQIPSTQFDAAHPTNVQRLAEPSQMLKHAVVNLINYQDDAELATRAIPELTKLLNDEDQVVVNKAAVMVHQLSKKEASRHAIMRSPQMVSAIVRTMQNTNDVETARCTAGTLHNLSHHREGLLAIFKSGGIPALVKMLGSPVDSVLFYAITTLHNLLLHQEGAKMAVRLAGGLQKMVALLNKTNVKFLAITTDCLQILAYGNQESKLIILASGGPQALVNIMRTYTYEKLLWTTSRVLKVLSVCSSNKPAIVEAGGMQALGLHLTDPSQRLVQNCLWTLRNLSDAATKQEGMEGLLGTLVQLLGSDDINVVTCAAGILSNLTCNNYKNKMMVCQVGGIEALVRTVLRAGDREDITEPAICALRHLTSRHQEAEMAQNAVRLHYGLPVVVKLLHPPSHWPLIKATVGLIRNLALCPANHAPLREQGAIPRLVQLLVRAHQDTQRRTSMGGTQQQFVEGVRMEEIVEGCTGALHILARDVHNRIVIRGLNTIPLFVQLLYSPIENIQRVAAGVLCELAQDKEAAEAIEAEGATAPLTELLHSRNEGVATYAAAVLFRMSEDKPQDYKKRLSVELTSSLFRTEPMAWNETADLGLDIGAQGEPLGYRQDDPSYRSFHSGGYGQDALGMDPMMEHEMGGHHPGADYPVDGLPDLGHAQDLMDGLPPGDSNQLAWFDTDL
Consider B3, for which the binding result in test [4] is reported as “binds”.

The values are drawn from PMC12362812.
